We go through 4 substances from patent US5965524A (Peptide Technologies Corporation, priority 1994, dated 1999).

A short description of the data set: general procedure: Fmoc solid-phase peptide synthesis; alkoxybenzyl alcohol resin; DCC/HOBT; Pfp esters. The conditions noted are these: for crude mass / isolated mass / isolated yield: whole synthesis, scale 0.37 mmol; for cyclisation yield: cyclisation step.

“And” between values parts separate entries of the source, which are not always exact repeats. Equal values may be shown once. HELM strings list residues between dots; [ac] is acetyl, [am] amide, other brackets name non-standard units.

For the substance “PEPTIDE1{[D-3-Hydroxydecanoyl].L.[dE].[D-allo-Thr].[dV].L.[dS].L.[dS].I}$$$$V2.0”, the crude mass is recorded as 670 mg, the isolated mass amounted to 144 mg and the isolated yield is on record as 34%.

Substance “PEPTIDE1{[D-3-Hydroxydecanoyl].L.[dE].[D-allo-Thr].[dV].L.[dS].L.[dS].I}$PEPTIDE1,PEPTIDE1,4:R3-10:R2$$$V2.0” gave a cyclisation yield of 29%. The step yield (late stage modification step) was 78%.

“PEPTIDE1{[D-3-Hydroxydecanoyl].L.[dE].[dT].[dV].L.[dS].L.[dS].I}$$$$V2.0” gave an isolated mass of 41 mg and an isolated yield of 10%. Besides, the crude mass (run 1) is 575 mg and 290 mg.

Deshydroxy Viscosin had a cyclisation yield of 52%.
